Source: PubChem BioAssay AID445 (National Center for Advancing Translational Sciences (NCATS), 2006)
Several values for one entry are separate records, joined by “and”; a condition that tells them apart may be missing. Identical values can stand only once. The list shows a part of the results. Further columns of the screen follow, without active or inactive calls. Most of these compounds were active or inconclusive in the main read-out, so they are no random draw. Words in brackets tell the shape of the fitted curve; partial curves, single points and poor fits give uncertain potencies.

Assay: IkB Signaling
Conditions: ABC-DLBCL IkBa-CBG/CBR dual luciferase ratio (green luciferase fused to IkBa over red control in OCI-Ly3 lymphoma cells), 4 h; measured here: control luc red channel unless noted
How it was run: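 Luminescence ratio of IκBα-fused green versus native red beetle luciferase in OCI-Ly3 cells, 4 h post-doxycycline with compound; red signal alone, scaled from basal (0%) to zero light (-100%), flagged nonspecific or cytotoxic effects.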
In the case of `Cc1ccc(NC(=O)CSc2nc(-c3cccs3)cc(C(F)(F)F)n2)cc1C`, the AC50 is reported as 5.01 µM [falling, single point]. With `Cc1cccc(NC(=O)CSc2cn(CC(=O)N3CCOCC3)c3ccccc23)c1` the AC50 was 12.6 µM [falling, partial curve]. For `COc1ccc(S(=O)(=O)N(CCc2ccccc2)CC(=O)Nc2cc(C)ccc2C)cc1`, the AC50 was 3.16 µM [falling, partial curve]. In the case of `CCc1ccc(NC(=O)C2CCN(S(=O)(=O)c3c(C)noc3/C=C/c3cccs3)CC2)cc1`, the AC50 is reported as 5.01 µM [falling, full curve]. With `CCOC(=O)C1=C(c2ccccc2)Nc2ncnn2C1c1ccc(Cl)cc1` (stereo not given) the AC50 was 15.8 µM [falling, single point]. For `COc1ccc(CNC(=O)c2ccc3c(c2)NC(=O)C(CS(=O)(=O)Cc2ccccc2Cl)N3)cc1` (stereo not given), the AC50 was 15.8 µM [falling, partial curve]. For `O=C(c1ccc2c(c1)N(Cc1cccc(Cl)c1)C(=O)c1ccccc1S2(=O)=O)N1CCC(Cc2ccccc2)CC1`, the AC50 was 12.6 µM [falling, partial curve]. With `Cc1nc2ccc(S(=O)(=O)N(CC(=O)Nc3ccc(Cl)cc3)Cc3ccccc3)cc2s1` the AC50 was 12.6 µM [falling, partial curve]. For `COc1cc(Cl)c(C)cc1Nc1c2c(nc3ccccc13)CCC2`, the AC50 was 31.6 µM [falling, single point]. For `Cc1cc(-c2csc(NC(=O)c3cc4ccccc4o3)n2)c(C)n1C`, the AC50 was 12.6 µM [falling, partial curve]. For `COc1cc(NC(=O)CCCN2C(=O)CCn3nc(-c4cn(C)c5ccccc45)cc32)cc(OC)c1`, the AC50 was 39.8 µM [falling, single point]. With `CSc1nc(C)cc(Nc2cccc(C(=O)O)c2)n1` the AC50 was 7.94 µM [falling, partial curve]. For `O=c1c(O)c(-c2ccc(O)cc2)oc2cc(O)cc(O)c12`, the AC50 was 7.94 µM [falling, partial curve] and 12.6 µM [falling, partial curve]. With `COc1cccc(C(=O)Nc2ccc3nc(SCC(=O)N4CCc5ccccc54)sc3c2)c1` the AC50 was 0.501 µM [falling, full curve]. For `Cc1sc2c(c1C)c(=O)n(-c1ccc(Cl)cc1)c(=O)n2CC(=O)c1ccccc1`, the AC50 was 0.794 µM [falling, full curve]. With `Cc1c(NC(=O)c2ccc(-c3ccc(F)cc3)o2)cccc1-c1nc2ncccc2o1` the AC50 was 12.6 µM [falling, partial curve]. For `O=c1[nH]c2ccc(S(=O)(=O)Nc3cc(Cl)ccc3O)cc2o1`, the AC50 was 15.8 µM [falling, single point]. For `N#CC1=C(N)NC(SCc2ccccc2)=C(C#N)C12CCCCC2`, the AC50 was 3.98 µM [falling, partial curve]. For `CC(CCc1ccco1)NC(=O)c1cc2c(-c3ccccc3F)nn(C)c2s1` (stereo not given), the AC50 was 2.51 µM [falling, full curve, poor fit]. In the case of `CCOc1ccccc1N1CCN(S(=O)(=O)c2ccc3c4c(cccc24)C(=O)N3)CC1`, the AC50 is reported as 15.8 µM [falling, partial curve]. With `CC(=O)Nc1cccc(-c2nnc(-c3ccccc3)o2)c1` the AC50 was 10 µM [falling, partial curve]. In the case of `Cc1cc(F)ccc1NC(=O)CN1C(=O)CCc2cc(S(=O)(=O)N3CCOCC3)ccc21`, the AC50 is reported as 25.1 µM [falling, single point]. With `Cc1ccc(-n2ncc(C(=O)N(C)Cc3ccccc3)c2-n2cccc2)cc1` the AC50 was 20 µM [falling, partial curve]. For `CC(CNC(=O)c1cc2ccccn2n1)c1ccccc1` (stereo not given), the AC50 was 7.94 µM [falling, partial curve]. In the case of `CC(C)n1c(NCc2cc(Cl)ccc2O)nc2ccccc21`, the AC50 is reported as 20 µM [falling, partial curve]. With `Cc1cc(Br)ccc1NC(=O)C(NS(=O)(=O)c1cccs1)c1ccccc1` (stereo not given) the AC50 was 12.6 µM [falling, partial curve]. With `COc1ccc2c(CNCCc3ccccc3OC)c(C(=O)O)n(Cc3ccc(F)cc3Cl)c2c1` the AC50 was 25.1 µM [falling, single point]. With `COc1ccc(C2=NS(=O)(=O)N(C)C(C(=O)NC(C)c3ccccc3)=C2)cc1OC` (stereo not given) the AC50 was 0.00251 µM [falling, full curve]. For `O=C(CSc1nc(-c2ccccc2)no1)N1CCN(c2ccc(F)cc2)CC1`, the AC50 was 3.16 µM [falling, full curve]. For `CC1=C(C(=O)OC2CCCC2)C(c2ccc(Cl)cc2)CC(=O)N1` (stereo not given), the AC50 was 31.6 µM [falling, partial curve]. In the case of `Cc1cc(C)cc(NC(=O)CN(c2cccc(C)c2C)S(=O)(=O)c2ccccc2)c1`, the AC50 is reported as 10 µM [falling, partial curve]. For `Cn1ccnc1SCC(=O)c1cc2ccccc2o1`, the AC50 was 20 µM [falling, partial curve, poor fit]. For `Cc1cc(C)cc(NC(=O)c2cc3c(=O)n(Cc4ccco4)ccc3nc2C)c1`, the AC50 was 15.8 µM [falling, partial curve]. For `O=C1N(Cc2ccc3c(c2)OCO3)c2ccccc2C1(O)c1c[nH]c2ccccc12` (stereo not given), the AC50 was 10 µM [falling, partial curve]. In the case of `O=C(COc1cccc(OC(F)F)c1)Nc1ccc(SC(F)F)cc1`, the AC50 is reported as 31.6 µM [falling, single point]. With `Cc1cc2c(cc1S(=O)(=O)CCC(=O)N(C)Cc1ccccc1)OCC(=O)N2` the AC50 was 25.1 µM [falling, single point]. For `CC1CCc2nc(NC(=O)Cc3ccc(Cl)cc3)sc2C1` (stereo not given), the AC50 was 39.8 µM [falling, single point]. For `CCOc1cccc(C2c3[nH]c4ccccc4c3CCN2C(=O)Cc2cccc(OCC)c2OCC)c1` (stereo not given), the AC50 was 20 µM [falling, single point]. In the case of `COc1ccc(Cl)cc1C(=O)Nc1ccccc1N1CCN(C)CC1`, the AC50 is reported as 20 µM [falling, single point]. For `Cc1nn(C)c2c1c(C(F)(F)F)cc(=O)n2C(C)C(=O)NCc1ccccc1` (stereo not given), the AC50 was 12.6 µM [falling, partial curve].
